According to publication PMC8010706:
No constants are given. Whether binding was seen depends on the method and setting. In cells and extracts the contact can be indirect. Some entries that bind do so weakly or less than the wild type. Sequences can lack the tags named with a protein.

Sequences of proteins named here, by UniProt entry; tags and fusion partners are left off. A change or cut given only in a name is not applied to a line headed by its entry. A line that says so, or that is headed by a name, gives the form on record, which may keep a tag or linker. Residues count along the entry.
UniProt O43765: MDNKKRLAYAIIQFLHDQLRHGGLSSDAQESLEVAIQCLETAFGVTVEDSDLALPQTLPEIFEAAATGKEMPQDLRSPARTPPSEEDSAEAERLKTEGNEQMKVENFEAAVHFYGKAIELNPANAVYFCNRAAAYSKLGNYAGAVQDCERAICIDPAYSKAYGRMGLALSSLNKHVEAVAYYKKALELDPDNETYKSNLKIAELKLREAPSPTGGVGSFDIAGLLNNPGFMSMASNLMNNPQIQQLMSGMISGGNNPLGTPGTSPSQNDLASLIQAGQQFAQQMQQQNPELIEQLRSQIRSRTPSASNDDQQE
His-tagged hSgt2-TPR-C (hSgt2 87-313): residues 87-313 of O43765
His-tagged hSgt2-C (hSgt2 213-313): residues 213-313 of O43765
His-tagged hSgt2-C_(cons) (hSgt2 219-300): residues 219-300 of O43765
His-tagged hSgt2-ΔH0 (hSgt2 228-300): residues 228-300 of O43765

How the values were obtained:
Experiment in all cases: pull-down; capture assay: His-tagged Sgt2 construct coexpressed with MBP-Sbh1 in E. coli; lysate incubated in batch with Ni-NTA resin at 4 °C for 1 h, washed with 20 mM Tris, 150 mM NaCl, 25 mM imidazole, 10 mM BME, pH 7.5, eluted with 300 mM imidazole; Coomassie-stained gel, MBP-Sbh1/Sgt2 ratio normalised to wild type
[1] = molecular target: T1, His-tagged ySgt2-ΔH0 (ySgt2 266-327) (Saccharomyces cerevisiae) (UniProt Q12118)
T1 sequence: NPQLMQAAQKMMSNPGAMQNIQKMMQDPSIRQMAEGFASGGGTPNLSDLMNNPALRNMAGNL

[2] = molecular target: His-tagged hSgt2-C (hSgt2 213-313) (Homo sapiens) (UniProt O43765)
[3] = molecular target: T2, His-tagged ySgt2-TPR-C (ySgt2 95-346) (Saccharomyces cerevisiae) (UniProt Q12118)
T2 sequence: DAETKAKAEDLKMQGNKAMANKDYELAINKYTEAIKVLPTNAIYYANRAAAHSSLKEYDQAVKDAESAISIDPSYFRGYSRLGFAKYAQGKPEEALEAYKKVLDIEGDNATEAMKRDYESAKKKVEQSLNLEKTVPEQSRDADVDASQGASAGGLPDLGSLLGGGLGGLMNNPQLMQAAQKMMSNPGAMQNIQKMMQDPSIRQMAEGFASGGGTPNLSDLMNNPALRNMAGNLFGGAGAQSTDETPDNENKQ

[4] = molecular target: T3, His-tagged ySgt2-C (ySgt2 222-346) (Saccharomyces cerevisiae) (UniProt Q12118)
T3 sequence: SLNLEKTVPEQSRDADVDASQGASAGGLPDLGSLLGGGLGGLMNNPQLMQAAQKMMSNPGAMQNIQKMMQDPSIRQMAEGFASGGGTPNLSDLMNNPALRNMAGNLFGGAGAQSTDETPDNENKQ

[5] = molecular target: T4, His-tagged ySgt2-C_(cons) (ySgt2 260-327) (Saccharomyces cerevisiae) (UniProt Q12118)
T4 sequence: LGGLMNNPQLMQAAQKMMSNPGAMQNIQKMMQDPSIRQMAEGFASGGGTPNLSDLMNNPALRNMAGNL

[6] = molecular target: His-tagged hSgt2-C_(cons) (hSgt2 219-300) (Homo sapiens) (UniProt O43765)
[7] = molecular target: His-tagged hSgt2-ΔH0 (hSgt2 228-300) (Homo sapiens) (UniProt O43765)
[8] = molecular target: His-tagged hSgt2-TPR-C (hSgt2 87-313) (Homo sapiens) (UniProt O43765)

binding [1]: binds
binding [2]: binds
binding [3]: binds
binding [4]: binds
binding [5]: binds
binding [6]: binds
binding [7]: binds
binding [8]: binds
B1: MBP-Sbh1 full length (protein, UniProt P52870 1-82)
chain: MSSPTPPGGQRTLQKRKQGSSQKVAASAPKKNTNSNNSILKIYSDEATGLRVDPLVVLFLAVGFIFSVVALHVISKVAGKLF
